PubChem BioAssay AID1259405, NCATS | 2018

Test: 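Silenced genes that increase secreted GFP made by CHO cells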 (primary screen)
System: Chinese hamster CHO-K1 ovary cells with stable secreted eGFP expression
Reagents: single siRNA against mouse genes, 0.8 pmol siRNA per well (2 µl of 400 nM stock)
Time to read-out: 3 days
Detection: 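Percent of the per-plate non-targeting control median for intracellular GFP per well by laser scanning cytometry and for cell viability by ATP luminescence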
Direction: GFP, % of control: higher = more GFP per well, higher productivity; viability (ATP), % of control: higher = more viable cells (more ATP)
Hit rule: 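a knock-down is called active if GFP reaches 120% or more of non-targeting control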
In all, the deposit lists about 50,000 reagents; below is an unselected part. About 4,000 of them (8%) were called active. 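Mouse siRNA library applied to hamster cells; one well for each siRNA.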 Reagents against one gene are numbered here.

gene knocked down	reagent	GFP, % of control	viability (ATP), % of control	Call
Fbxo22 (GeneID 71999)	1	57.3	83.8	inactive
Fbxo22 (GeneID 71999)	2	84.1	80.6	inactive
Fbxo22 (GeneID 71999)	3	97.4	85.2	inactive
Sgcd (GeneID 24052)	1	119	100	inactive
Sgcd (GeneID 24052)	2	150	70.3	active
Sgcd (GeneID 24052)	3	103	103	inactive
Syt11 (GeneID 229521)	1	128	158	active
Syt11 (GeneID 229521)	2	79.8	80.5	inactive
Mela (GeneID 17276)	1	111	75.1	inactive
Mela (GeneID 17276)	2	84.3	53.6	inactive
Mela (GeneID 17276)	3	91.3	81.5	inactive
Faxc (GeneID 76132)	1	69.3	69.2	inactive
Faxc (GeneID 76132)	2	28.1	77	inactive
Faxc (GeneID 76132)	3	95.7	124	inactive
Wdr75 (GeneID 73674)	1	122	57.8	active
Wdr75 (GeneID 73674)	2	51.1	25.3	inactive
Wdr75 (GeneID 73674)	3	86.5	80.2	inactive
Tada3 (GeneID 101206)	1	75.9	91.1	inactive
Tada3 (GeneID 101206)	2	57.7	56.7	inactive
Foxo3 (GeneID 56484)	1	67.7	64.3	inactive
Foxo3 (GeneID 56484)	2	95.2	92	inactive
Rab3ip (GeneID 216363)	1	90.8	62.6	inactive
Rab3ip (GeneID 216363)	2	94.3	78.8	inactive
Rab3ip (GeneID 216363)	3	67.1	44.1	inactive
Ifih1 (GeneID 71586)	1	85.4	92.4	inactive
Ifih1 (GeneID 71586)	2	96.2	105	inactive
Ifih1 (GeneID 71586)	3	125	113	active
Josd1 (GeneID 74158)	1	99.7	89.4	inactive
Josd1 (GeneID 74158)	2	42.3	71.6	inactive
Josd1 (GeneID 74158)	3	76	66.8	inactive
Csf1 (GeneID 12977)	1	60	62.5	inactive
Csf1 (GeneID 12977)	2	35.3	67	inactive
Csf1 (GeneID 12977)	3	94.7	61.9	inactive
1700029M20Rik (GeneID 73937)	1	48.4	42.8	inactive
1700029M20Rik (GeneID 73937)	2	83.4	67.1	inactive
1700029M20Rik (GeneID 73937)	3	54.3	72.4	inactive
Klhl38 (GeneID 268807)	1	60.4	47.6	inactive
Klhl38 (GeneID 268807)	2	80.8	87.3	inactive
Klhl38 (GeneID 268807)	3	121	116	active
Tuba1c (GeneID 22146)	1	91.1	70.9	inactive
Tuba1c (GeneID 22146)	2	58.2	82	inactive
Pcgf2 (GeneID 22658)	1	34.8	47	inactive
Pcgf2 (GeneID 22658)	2	120	81	inactive
Pcgf2 (GeneID 22658)	3	86.3	87	inactive

Entries listed so far whose target name begins with W or w (3):
gene knocked down	reagent	GFP, % of control	viability (ATP), % of control	Call
Wdr75 (GeneID 73674)	1	122	57.8	active
Wdr75 (GeneID 73674)	2	51.1	25.3	inactive
Wdr75 (GeneID 73674)	3	86.5	80.2	inactive

More results:
gene knocked down	reagent	GFP, % of control	viability (ATP), % of control	Call
Gsdma (GeneID 57911)	1	54.4	66.7	inactive
Gsdma (GeneID 57911)	2	86.5	80.2	inactive
Gsdma (GeneID 57911)	3	101	60	inactive
Anxa4 (GeneID 11746)	1	75.8	103	inactive
Anxa4 (GeneID 11746)	2	74.7	100	inactive
Anxa4 (GeneID 11746)	3	58.1	98.9	inactive
Twf2 (GeneID 23999)	1	43	34.9	inactive
Twf2 (GeneID 23999)	2	58.5	60.2	inactive
Gbp7 (GeneID 229900)	1	102	73.9	inactive
Gbp7 (GeneID 229900)	2	66.4	71.3	inactive
Gbp7 (GeneID 229900)	3	17.5	22.9	inactive
Bnip3l (GeneID 12177)	1	57.6	60.3	inactive
Bnip3l (GeneID 12177)	2	81.8	69.9	inactive
Bnip3l (GeneID 12177)	3	168	143	active
Bnip3l (GeneID 12177)	4	102	78.3	inactive
Bnip3l (GeneID 12177)	5	97.5	84.1	inactive
Bnip3l (GeneID 12177)	6	125	110	active
A3galt2 (GeneID 215493)	1	57.6	89	inactive
A3galt2 (GeneID 215493)	2	76.5	83.1	inactive
A3galt2 (GeneID 215493)	3	58.4	67.1	inactive
Ddx41 (GeneID 72935)	1	92.4	77.4	inactive
Ddx41 (GeneID 72935)	2	72	70.9	inactive
Ddx41 (GeneID 72935)	3	145	149	active
Or5ak4 (GeneID 257951)	1	83.7	70.8	inactive
Or5ak4 (GeneID 257951)	2	77.6	83.4	inactive
Or5ak4 (GeneID 257951)	3	76.9	68	inactive
Prm3 (GeneID 19120)	1	155	87.3	active
Prm3 (GeneID 19120)	2	90.7	67.5	inactive
Prm3 (GeneID 19120)	3	98.1	64	inactive
Evpl (GeneID 14027)	1	63.5	109	inactive
Evpl (GeneID 14027)	2	57.3	51.6	inactive
Trim69 (GeneID 70928)	1	69.3	86.4	inactive
Trim69 (GeneID 70928)	2	57.7	67.8	inactive
Trim69 (GeneID 70928)	3	129	58	active
Cyp3a44 (GeneID 337924)	1	11.5	12.4	inactive
Cyp3a44 (GeneID 337924)	2	66.1	75.3	inactive
Cyp3a44 (GeneID 337924)	3	64.8	60.7	inactive
Mcm7 (GeneID 17220)	1	138	127	active
Mcm7 (GeneID 17220)	2	76.4	83.5	inactive
Mcm7 (GeneID 17220)	3	113	75.9	inactive
